The record followed here is patent US12037302B1, “Compound for treatment of bacterial infections of different etiology in humans” (priority 2021, dated 2024).

The nature of this data set: Solubility of the product. The class given is physicochemical. The procedure:
On chromatographie separation, two separate peaks of Lidocaine in cationic form and 2,4-dinitrocarvacrol in anionic form can be seen. Methanol is used as a mobile phase and the peak of Lidocaine becomes available at about 24 min and the peak of 2,4-dinitrocarvacrol at about 26 min. Other possible peaks, if present, could be mononitration products and unreacted Carvacrol, which means that the reaction was not completed. Both mononitrocarvacrol and Carvacrol are considered non-harmless impurities.
The novel product's solubility in water is improved by adding nitro groups to its aromatic ring. It can be visually tracked by examining the color of the solution. The nitro group is a well-known chromophore, which means that it changes the ab-sorption of electromagnetic radiation from UV to visible spectra. The nitro groups are also electron-withdrawing by inductive and resonance effects, which improves the acidity of phenolic protons. Improved acidity means that more acidic protons can more easily react with bases.

Turning to `CCN(CC)CC(=O)Nc1c(C)cccc1C.Cc1cc([N+](=O)[O-])c(C(C)C)c([N+](=O)[O-])c1O` [Novel Compound, 2,4-dinitro-5-isopropyl-2-methylphenoxy-N-(2,6-dimethylphenylium)-N2,N2-diethylglycinamide], the “solubility in PSB” value (PSB (phosphate-buffered saline, isotonic solution, pH of 7.4), in comparison to Carvacrol salt with Lidocaine) was “improved”. The “solubility in alkaline solutions” value (alkaline solutions, compared with water) was “even more soluble”. In addition, the solubility in water result (water) was “slightly soluble”. Further, for the setting “water, by adding nitro groups to the aromatic ring”, the “solubility in water, effect of nitro groups” value is listed as “improved”.
